Test results published in patent US8853151B2, “Pro-drug complexes and related methods of use” (The Regents of the University of Michigan, priority 2009, dated 2014).
Part of at least one peptide drawing is inferred or uncertain, most often the ends.

How the values were obtained:
[1] = tested on: cervical carcinoma cell line KB; assay: Effect on cell growth with or without recombinant human DT-Diaphorase (DTD) in the growth medium, KB cells; assay type: cell-based; conditions: presence of DTD
Excerpt: (§1) The redox-coupled release of free SN38 from the SN-38 pro-drug complex
(§2) [drawing 24] using the enzyme DT-Diaphorase (DTD) was investigated. DTD is a cytosolic oxidoreductase which catalyzes the two-electron reduction of quinones using NADH or NADPH as electron donors (see, e.g., Phillips et al, Biochemical Pharmacology 68: 2107-2116 (2004); herein incorporated by reference in its entirety). As the DTD-induced reduction of quinones is known to take place even under normoxic conditions, the enzyme is used as a positive control for testing the release of drugs from quinone-linked drugs. Synthesized SN-38 pro-drug complex was incubated with recombinant human DTD (Sigma) added into the cell growth medium in the presence of different concentration of the SN-38 pro-drug complex. The effect of the drug on cell growth was determined in two different human cell lines, the cervical carcinoma cell line KB, and the breast cancer cell line SKBR3.

[2] = tested on: breast cancer cell line SKBR3; assay: Effect on cell growth with or without recombinant human DT-Diaphorase (DTD) in the growth medium, SKBR3 cells; assay type: cell-based; conditions: presence of DTD
Excerpt: as §1, §2

SMILES: CCc1c2c(nc3ccc(OC(=O)N(C)CCN(C)C(=O)OCc4c5c(n(CC(=O)NCCOCCOCCOCCn6cc(CCC(=O)CCCC(=O)NCCCCC7NC(=O)[C@@H](Cc8ccc(O)cc8)NC(=O)[C@H](CC(=O)O)NC(=O)CNC(=O)[C@H](CCCNC(=N)N)NC7=O)nn6)c4C)C(=O)C=C(OC)C5=O)cc13)-c1cc3c(c(=O)n1C2)COC(=O)[C@]3(O)CC (some centres unmarked) [SN-38 pro-drug complex]
- decrease in cell growth [1]: 50-70%
- decrease in cell growth [2]: 50-70%
